Binding data for one molecule are collected here from publication PMC12499470.

Common to all, as to test: co-IP; HEK293T cells co-transfected with HA- and FLAG-tagged constructs, lysates after 48 h, immunoprecipitation with EZview Red anti-FLAG M2 affinity gel, Western blot
Test [1] has as its target T1, HSL-FLAG (hormone-sensitive lipase, FLAG-tagged) (human) (UniProt Q05469).
T1 sequence: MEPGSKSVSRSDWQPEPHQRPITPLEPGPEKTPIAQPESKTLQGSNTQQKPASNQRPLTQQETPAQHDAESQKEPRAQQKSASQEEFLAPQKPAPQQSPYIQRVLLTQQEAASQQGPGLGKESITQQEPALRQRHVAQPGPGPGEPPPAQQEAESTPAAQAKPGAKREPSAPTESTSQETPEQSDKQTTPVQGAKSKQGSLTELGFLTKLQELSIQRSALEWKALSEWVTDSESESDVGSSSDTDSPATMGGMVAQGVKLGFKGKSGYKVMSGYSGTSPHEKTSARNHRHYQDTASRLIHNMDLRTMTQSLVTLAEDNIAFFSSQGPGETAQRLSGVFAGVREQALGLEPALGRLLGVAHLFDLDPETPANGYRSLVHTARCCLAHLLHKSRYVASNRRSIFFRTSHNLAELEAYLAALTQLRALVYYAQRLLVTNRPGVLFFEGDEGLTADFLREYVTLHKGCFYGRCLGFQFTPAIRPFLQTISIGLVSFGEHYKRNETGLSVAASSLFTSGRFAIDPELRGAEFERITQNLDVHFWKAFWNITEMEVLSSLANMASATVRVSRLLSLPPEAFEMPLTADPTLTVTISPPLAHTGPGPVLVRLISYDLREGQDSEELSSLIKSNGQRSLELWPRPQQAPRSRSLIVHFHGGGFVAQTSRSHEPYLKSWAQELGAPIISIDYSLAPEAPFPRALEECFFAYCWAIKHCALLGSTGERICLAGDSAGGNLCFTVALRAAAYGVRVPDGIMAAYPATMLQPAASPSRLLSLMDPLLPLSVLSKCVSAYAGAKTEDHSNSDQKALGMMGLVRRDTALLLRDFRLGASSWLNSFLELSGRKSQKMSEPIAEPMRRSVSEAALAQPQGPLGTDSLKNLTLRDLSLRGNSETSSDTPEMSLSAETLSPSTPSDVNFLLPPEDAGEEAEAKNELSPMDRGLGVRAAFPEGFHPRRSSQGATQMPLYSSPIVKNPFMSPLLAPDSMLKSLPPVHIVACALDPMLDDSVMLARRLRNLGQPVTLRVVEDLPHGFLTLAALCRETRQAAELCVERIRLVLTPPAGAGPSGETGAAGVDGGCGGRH

The target in test [2] is T2, HSL 1-343-FLAG (tissue specific additional N-terminal domain of HSL) (human) (UniProt Q05469).
T2 sequence: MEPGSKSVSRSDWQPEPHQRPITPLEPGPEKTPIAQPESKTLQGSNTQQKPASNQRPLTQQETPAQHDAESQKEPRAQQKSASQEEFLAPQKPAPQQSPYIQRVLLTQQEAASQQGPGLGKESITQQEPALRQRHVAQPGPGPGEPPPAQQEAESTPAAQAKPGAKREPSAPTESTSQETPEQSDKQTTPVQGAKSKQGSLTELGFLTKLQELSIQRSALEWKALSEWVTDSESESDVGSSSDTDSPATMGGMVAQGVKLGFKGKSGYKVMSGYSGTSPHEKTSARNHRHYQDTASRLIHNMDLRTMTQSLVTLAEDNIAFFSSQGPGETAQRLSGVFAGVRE

Test [3] concerns the target T3, HSL 344-665-FLAG (N-terminal domain of HSL) (human) (UniProt Q05469).
T3 sequence: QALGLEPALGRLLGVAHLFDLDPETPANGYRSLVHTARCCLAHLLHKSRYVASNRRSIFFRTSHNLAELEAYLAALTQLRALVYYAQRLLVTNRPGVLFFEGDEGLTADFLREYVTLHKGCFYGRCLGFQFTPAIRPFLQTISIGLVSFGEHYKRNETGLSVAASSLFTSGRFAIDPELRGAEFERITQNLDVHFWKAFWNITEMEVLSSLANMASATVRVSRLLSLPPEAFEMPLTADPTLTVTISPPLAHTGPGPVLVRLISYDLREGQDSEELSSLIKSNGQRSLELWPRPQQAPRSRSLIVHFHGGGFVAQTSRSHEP

The target of test [4] is T4, HSL 666-1076-FLAG (regulatory domain of HSL) (human) (UniProt Q05469).
T4 sequence: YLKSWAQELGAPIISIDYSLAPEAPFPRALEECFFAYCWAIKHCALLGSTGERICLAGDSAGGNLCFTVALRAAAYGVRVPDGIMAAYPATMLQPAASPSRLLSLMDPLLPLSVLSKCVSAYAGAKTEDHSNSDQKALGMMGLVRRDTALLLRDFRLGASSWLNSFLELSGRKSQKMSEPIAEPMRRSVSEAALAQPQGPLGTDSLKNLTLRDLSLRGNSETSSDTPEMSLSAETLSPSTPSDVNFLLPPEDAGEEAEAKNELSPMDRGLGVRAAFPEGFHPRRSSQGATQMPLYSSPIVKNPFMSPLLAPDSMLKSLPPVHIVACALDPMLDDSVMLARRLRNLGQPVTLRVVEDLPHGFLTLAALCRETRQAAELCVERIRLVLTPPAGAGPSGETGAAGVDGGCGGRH

These are yes or no findings as the source states them, for the method shown. In cells and extracts the contact can be indirect. Some entries that bind do so weakly or less than the wild type. Where a sequence is shown, tags or fusion partners need not be part of it.

B1: PKGα-HA (protein kinase cGMP-dependent 1, isoform α, HA-tagged) (enzyme, UniProt Q13976 1-671)
chain: MSELEEDFAKILMLKEERIKELEKRLSEKEEEIQELKRKLHKCQSVLPVPSTHIGPRTTRAQGISAEPQTYRSFHDLRQAFRKFTKSERSKDLIKEAILDNDFMKNLELSQIQEIVDCMYPVEYGKDSCIIKEGDVGSLVYVMEDGKVEVTKEGVKLCTMGPGKVFGELAILYNCTRTATVKTLVNVKLWAIDRQCFQTIMMRTGLIKHTEYMEFLKSVPTFQSLPEEILSKLADVLEETHYENGEYIIRQGARGDTFFIISKGTVNVTREDSPSEDPVFLRTLGKGDWFGEKALQGEDVRTANVIAAEAVTCLVIDRDSFKHLIGGLDDVSNKAYEDAEAKAKYEAEAAFFANLKLSDFNIIDTLGVGGFGRVELVQLKSEESKTFAMKILKKRHIVDTRQQEHIRSEKQIMQGAHSDFIVRLYRTFKDSKYLYMLMEACLGGELWTILRDRGSFEDSTTRFYTACVVEAFAYLHSKGIIYRDLKPENLILDHRGYAKLVDFGFAKKIGFGKKTWTFCGTPEYVAPEIILNKGHDISADYWSLGILMYELLTGSPPFSGPDPMKTYNIILRGIDMIEFPKKIAKNAANLIKKLCRDNPSERLGNLKNGVKDIQKHKWFEGFNWEGLRKGTLTPPIIPSVASPTDTSNFDSFPEDNDEPPPDDNSGWDIDF
With B1, the binding entry in test [1] is given as “binds”; in test [2], “binds”; in test [3] it was “binds”; in test [4], “binds weakly”.
